Laboratory results taken from PubChem BioAssay AID540256 (National Center for Advancing Translational Sciences (NCATS), 2011).
Where “and” joins values, the source holds several entries; their conditions need not be identical. Identical values can stand only once. The whole screen tested about 300,000 compounds, of which about 3,700 (1.2%) were called active. Inconclusive results, whose numbers are uncertain, are shown with a selection of clear calls. Calls come from the whole dose curve; tested in HEK293 cells. Potencies of inconclusive entries are doubtful fits and often do not repeat.
% is set by controls: 0 for no effect and ±100 for the full control effect; potency is the fitted concentration of half-maximal effect.

Assay: qHTS for Inhibitors of binding or entry into cells for Lassa Virus; note: nearly all actives have a fitted effect of over 50% in size
Conditions: Lassa virus pseudotype entry inhibition, cell reporter; activity change, negative = inhibition: at 37.9 µM (top of the series) unless noted
In the case of CN(C)S(=O)(=O)c1cccc(C(=O)Nc2cc(Cl)cc(Cl)c2)c1, the Potency is reported as inconclusive: 35.5 µM [inhibitor, single point].
With CCn1cc2nc(SCc3cccc(F)c3)n(CCc3ccccc3)c(=O)c2n1 the Potency was inconclusive: 35.5 µM [inhibitor, single point].
With Clc1cc(NCc2cccs2)ccc1N1CCOCC1 the “activity change, negative = inhibition” value was inactive: 5.27%.
In the case of Fc1ccc2[nH]c3c(c2c1)CN(C(=S)NCc1ccccc1)CC3, the Potency is reported as inconclusive: 12.6 µM [inhibitor, partial curve, poor fit].
For COC(=O)c1c(N(S(C)(=O)=O)S(C)(=O)=O)sc2c1CCN(c1ncc(C(F)(F)F)cc1Cl)C2, the Potency was inconclusive: 23.1 µM [inhibitor, single point].
For CC(=O)c1cccc(OCc2cc(C(=O)N3C[C@@H](C)O[C@@H](C)C3)no2)c1, the Potency was inconclusive: 5.62 µM [activator, single point].
For CCOC(=O)c1c(N)n(Cc2ccco2)c2nc3ccccc3nc12, the “activity change, negative = inhibition” value was inactive: -1.97%.
In the case of CC(=O)OC(C)C[N+](C)(C)C (stereo unspecified), the Potency is reported as inconclusive: 14.6 µM [activator, partial curve, poor fit].
With Cc1c(C(=O)N(C)C2CCCCC2)sc2ncnc(N3CCN(c4ccccc4F)CC3)c12 the Potency was inconclusive: 12.6 µM [inhibitor, partial curve, poor fit].
With COc1cccc(CNC(=O)CCc2ccc(OC)c(OC)c2)c1 the activity change, negative = inhibition was inconclusive: 21.2% [activator].
In the case of c1ccc(-n2cccc2CNC2CCCCC2)cc1, the “activity change, negative = inhibition” value is reported as inactive: 2.02%.
With Cc1ccccc1NC(=O)Nc1ccccc1C(N)=O the “activity change, negative = inhibition” value was inactive: 9.45%.
With CN(C)c1ccc(/C=C2\C(=O)Nc3ccccc32)cc1 the Potency was inconclusive: 9.2 µM [inhibitor, partial curve, poor fit].
For O=C(c1cc(-c2cccs2)nc2ccccc12)N1CCN(S(=O)(=O)c2cccc(F)c2)CC1, the “activity change, negative = inhibition” value was inactive: -11.9%.
With O=c1c2[nH]c3ccc(F)cc3c2ncn1CCN1CCOCC1 the Potency was inconclusive: 7.08 µM [activator, full curve, poor fit].
For O=C(Nc1ccc(S(=O)(=O)N2CCCC2)cc1)c1cccs1, the Potency was inconclusive: 22.4 µM [inhibitor, single point].
In the case of Cc1ccc(OCc2cc(C(=O)N3CCN(C4CCCC4)CC3)no2)cc1C, the “activity change, negative = inhibition” value is reported as inactive: -3.42%.
For CCc1cc2c(s1)NC(=O)CN=C2c1cccs1, the Potency was inconclusive: 7.3 µM [inhibitor, partial curve].
For Cc1cccc(N2CCN(C(=O)C3CCN(S(=O)(=O)N4CCOCC4)CC3)CC2)c1C, the Potency was inconclusive: 29.1 µM [inhibitor, single point].
In the case of CCCCOC(=O)c1ccc(NC(=O)c2ccccc2OC)cc1, the Potency is reported as inconclusive: 0.794 µM [inhibitor, partial curve, poor fit].
For CCOC(=O)c1c(-c2ccccc2)oc2cc(Br)c(O)c(C=O)c12, the Potency was inconclusive: 11.2 µM [inhibitor, partial curve, poor fit].
In the case of COc1ccc(CNc2ccccc2)cc1Br, the Potency is reported as inconclusive: 20.6 µM [activator, single point].
For COc1cccc(C(=O)c2c[nH]c(C(=O)NCc3ccco3)c2)c1, the Potency was inconclusive: 35.5 µM [inhibitor, single point].
For O=C(c1ccc2c(c1)OCCO2)C1CCN(C(=O)Nc2ccccc2F)CC1, the Potency was inconclusive: 3.55 µM [activator, single point].
With CCCNS(=O)(=O)c1cccc(C(=O)OCc2cc(=O)oc3cc(OC)ccc23)c1 the Potency was inconclusive: 3.98 µM [inhibitor, partial curve, poor fit].
With O=C(NC1CCCCCC1)C(=S)NCc1ccccc1 the Potency was inconclusive: 12.6 µM [activator, single point].
In the case of Cn1c(C(=O)N2CCN(c3cccc(C(F)(F)F)c3)CC2)cc2sccc21, the Potency is reported as inconclusive: 6.51 µM [activator, single point].
With CCCC[n+]1ccn(C2=C([O-])c3ccccc3C(=O)/C2=N\S(=O)(=O)c2ccc(Br)cc2)c1 the Potency was “inactive and inconclusive: 2.51 µM [inhibitor, partial curve]”.
In the case of Cc1cccc(C)c1OCC(O)CN1CCc2ccccc2C1 (stereo unspecified), the “activity change, negative = inhibition” value is reported as inactive: -10.4%.
With CCc1ccc(CCC(=O)Nc2ncc(Cc3ccccc3Cl)s2)o1 the Potency was inconclusive: 3.98 µM [inhibitor, partial curve].
In the case of COc1ccc(N(C(=O)COc2ccccc2)C2C=CS(=O)(=O)C2)c(OC)c1 (stereo unspecified), the Potency is reported as inconclusive: 6.51 µM [activator, single point].
In the case of O=C(CNC(=O)C1CCCCC1)Nc1ccccc1Cl, the Potency is reported as inconclusive: 18.4 µM [inhibitor, partial curve, poor fit].
In the case of CC1Cc2ccccc2N1S(=O)(=O)c1cccc(C(=O)NCc2ccco2)c1 (stereo unspecified), the Potency is reported as active: 10 µM.
For Cc1ccccc1OCC(=O)NC(=S)Nc1ccc(Br)c(C)n1, the Potency was inconclusive: 0.092 µM [inhibitor, full curve, poor fit].
For O=C(Oc1ccc(Br)cc1C(=S)N1CCOCC1)c1ccc([N+](=O)[O-])cc1[N+](=O)[O-], the Potency was inconclusive: 35.5 µM [activator, single point].
In the case of O=C(NCc1ccncc1)c1nc(-c2ccc(C(F)(F)F)cc2)no1, the “activity change, negative = inhibition” value is reported as inactive: -8.04%.
In the case of CN=c1scc(-c2cccs2)n1/N=C/c1ccc(O)c(O)c1O, the Potency is reported as inconclusive: 11.2 µM [inhibitor, partial curve, poor fit].
In the case of CC(Sc1nnc(-c2ccco2)o1)C(=O)NCCC1=CCCCC1 (stereo unspecified), the Potency is reported as inconclusive: 6.31 µM [activator, partial curve, poor fit].
In the case of Oc1c(Cl)cc(Cl)cc1Sc1cc(Cl)cc(Cl)c1O, the Potency is reported as inconclusive: 29.1 µM [inhibitor, single point].
In the case of O=C(C1CCN(Cc2ccc(Cl)cc2)CC1)N1CCN(Cc2ccc3c(c2)OCO3)CC1, the Potency is reported as inconclusive: 12.6 µM [inhibitor, partial curve, poor fit].
For Cc1ccc(C(C(=O)NCc2ccccc2)N(C(=O)c2ccccn2)c2ccccc2)o1 (stereo unspecified), the Potency was inconclusive: 8.91 µM [inhibitor, partial curve, poor fit].
